# The supplement of paper PMC4604168 (melanoma cell lines)
# This is one part of the list. Single values are uncertain, as repeats are few or missing.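 The apoptosis fraction was the count of cleaved-PARP antibody-stained nuclei relative to all DNA-stained nuclei, imaged in 1,536-well plates. Screening doses were set so most cells survived, and baseline and induced cleaved-PARP levels vary greatly across cell lines.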
# Key:
# Test in all cases: cleaved PARP positive nuclei fraction relative to DMSO control; melanoma cells; higher = more apoptosis
# Conditions in all cases: library dose: low library concentration; 72 h
# [1] = tested on: COLO792
# [2] = tested on: COLO800
# [3] = tested on: COLO829
# [4] = tested on: G361
# [5] = tested on: IPC-298
# [6] = tested on: IST-MEL1
# [7] = tested on: LB2518-MEL
# [8] = tested on: LOXIMVI
Structure (SMILES),cleaved PARP positive nuclei fraction [1],cleaved PARP positive nuclei fraction [2],cleaved PARP positive nuclei fraction [3],cleaved PARP positive nuclei fraction [4],cleaved PARP positive nuclei fraction [5],cleaved PARP positive nuclei fraction [6],cleaved PARP positive nuclei fraction [7],cleaved PARP positive nuclei fraction [8]
"Cn1cc(C2=C(c3cn(C4CCN(Cc5ccccn5)CC4)c4ccccc34)C(=O)NC2=O)c2ccccc21 [Enzastaurin] + c1cc(-c2cnn3cc(-c4ccc(OCCN5CCCCC5)cc4)cnc23)ccn1 [Dorsomorphin] (first compound 0.8 µM, partner dose 0.4 µM)",191%,131%,51.6%,55.1%,115%,53.8%,145%,63.7%
"Cn1cc(C2=C(c3cn(C4CCN(Cc5ccccn5)CC4)c4ccccc34)C(=O)NC2=O)c2ccccc21 [Enzastaurin] + COC(=O)c1sccc1S(=O)(=O)Nc1ccc(Nc2ccccc2)cc1OC [GSK0660] (first compound 0.8 µM, partner dose 1 µM)",60.9%,139%,65.7%,58.6%,81.2%,81%,78.6%,177%
"C[C@]12O[C@H](C[C@]1(O)CO)n1c3ccccc3c3c4c(c5c6ccccc6n2c5c31)CNC4=O [Lestaurtinib] + N#Cc1c(O)c2c(-c3ccc(-c4ccccc4O)cc3)csc2[nH]c1=O [A769662] (first compound 0.004 µM, partner dose 2 µM)",76.5%,78.9%,86.9%,131%,190%,52.5%,67.5%,84.4%
"N.N.[Cl][Pt][Cl] [cisplatin] + COc1ccc(-c2ccc3c(N4CCOCC4)nc(N4C[C@@H](C)O[C@@H](C)C4)nc3n2)cc1CO [KU0063794] (first compound 1.6 µM, partner dose 0.02 µM)",204%,68.8%,120%,153%,101%,212%,63.1%,134%
"OCc1c[nH]c2ccccc12 [Indole-3-carbinol] + C/C(O)=C(\C#N)C(=O)Nc1cc(Br)ccc1Br [LFM-A13] (first compound 0.8 µM, partner dose 2 µM)",103%,170%,76.4%,189%,96.7%,86.9%,73.3%,3190%
"O=C(O)c1ccc2c(c1)nc(Nc1cccc(Cl)c1)c1ccncc12 + O=C(Oc1ccc([N+](=O)[O-])cc1)N1CCC(C(O)(c2ccc3c(c2)OCO3)c2ccc3c(c2)OCO3)CC1 [JZL184] (first compound 0.4 µM, partner dose 1 µM)",91.7%,70%,101%,88.1%,31%,88.1%,86.5%,38.1%
"Cn1cc(C2=C(c3cn(C4CCN(Cc5ccccn5)CC4)c4ccccc34)C(=O)NC2=O)c2ccccc21 [Enzastaurin] + N#Cc1c(O)c2c(-c3ccc(-c4ccccc4O)cc3)csc2[nH]c1=O [A769662] (first compound 0.8 µM, partner dose 2 µM)",58%,46.8%,40.4%,85.1%,126%,66.1%,223%,219%
"O=C(/C=C/c1cccnc1)NCCCCC1CCN(C(=O)c2ccccc2)CC1 + O=C(Oc1ccc([N+](=O)[O-])cc1)N1CCC(C(O)(c2ccc3c(c2)OCO3)c2ccc3c(c2)OCO3)CC1 [JZL184] (first compound 0.01 µM, partner dose 1 µM)",167%,527%,196%,2480%,234%,135%,134%,86.3%
"N.N.[Cl][Pt][Cl] [cisplatin] + Cc1cc([N+](=O)[O-])ccc1NS(=O)(=O)c1cc(Cl)ccc1Cl [FH535] (first compound 1.6 µM, partner dose 1 µM)",309%,31.2%,55.7%,42.2%,137%,99.4%,84.1%,116%
"N.N.[Cl][Pt][Cl] [cisplatin] + O=C(Nc1ccccc1)c1cc([N+](=O)[O-])ccc1Cl [GW9662] (first compound 1.6 µM, partner dose 2 µM)",184%,42.1%,107%,214%,60.2%,346%,37.1%,48.1%
"CCN(CC)CCNC(=O)c1c(C)[nH]c(/C=C2\C(=O)Nc3ccc(F)cc32)c1C [sunitinib] + C/C(O)=C(\C#N)C(=O)Nc1cc(Br)ccc1Br [LFM-A13] (first compound 0.4 µM, partner dose 2 µM)",113%,92%,21.9%,108%,176%,122%,97.6%,207%
"O=C(O)[C@@H]1[O][Sb](=[O])([O][Sb]2(=[O])[O][C@H]([C@H](O)CO)[C@H](O)[C@H](C(=O)O)[O]2)[O][C@H]([C@H](O)CO)[C@@H]1O (some centres not stated) [stibogluconate] + Cc1cc(SCc2sc(-c3ccc(C(F)(F)F)c(F)c3)nc2C)ccc1OCC(=O)O [GW0742] (first compound 2 µM, partner dose 2 µM)",68.4%,97.9%,72%,334%,44.2%,86.2%,65.7%,152%
"Cn1cc(C2=C(c3cn(C4CCN(Cc5ccccn5)CC4)c4ccccc34)C(=O)NC2=O)c2ccccc21 [Enzastaurin] + COc1cc2ncnc(Nc3ccc(Oc4ccccc4)cc3)c2cc1OC [SrcI1] (first compound 0.8 µM, partner dose 2 µM)",29.5%,83.8%,34.9%,102%,36.1%,65.3%,56.4%,359%
"Cn1sc(=O)n(Cc2ccccc2)c1=O + O=C(Oc1ccc([N+](=O)[O-])cc1)N1CCC(C(O)(c2ccc3c(c2)OCO3)c2ccc3c(c2)OCO3)CC1 [JZL184] (first compound 0.4 µM, partner dose 1 µM)",117%,50.3%,51.6%,145%,47.9%,120%,60.6%,112%
"CC1(C)CCC(c2ccc(Cl)cc2)=C(CN2CCN(c3ccc(C(=O)NS(=O)(=O)c4ccc(N[C@H](CCN5CCOCC5)CSc5ccccc5)c(S(=O)(=O)C(F)(F)F)c4)cc3)CC2)C1 + O=C(Oc1ccc([N+](=O)[O-])cc1)N1CCC(C(O)(c2ccc3c(c2)OCO3)c2ccc3c(c2)OCO3)CC1 [JZL184] (first compound 0.4 µM, partner dose 1 µM)",351%,81.5%,28.3%,102%,117%,83.9%,106%,122%
"C[C@]12O[C@H](C[C@]1(O)CO)n1c3ccccc3c3c4c(c5c6ccccc6n2c5c31)CNC4=O [Lestaurtinib] + O=S(=O)(c1ccccc1)N(CC(F)(F)F)c1ccc(C(O)(C(F)(F)F)C(F)(F)F)cc1 [T0901317] (first compound 0.004 µM, partner dose 1.4 µM)",77.9%,99.5%,81.5%,104%,34%,412%,50.4%,52.3%
"Nc1nc(F)nc2c1ncn2[C@@H]1O[C@H](CO)[C@@H](O)[C@@H]1O [fludarabine] + O=C(Oc1ccc([N+](=O)[O-])cc1)N1CCC(C(O)(c2ccc3c(c2)OCO3)c2ccc3c(c2)OCO3)CC1 [JZL184] (first compound 0.2 µM, partner dose 1 µM)",128%,86.3%,140%,109%,218%,100%,62.5%,105%
"C[C@]12O[C@H](C[C@]1(O)CO)n1c3ccccc3c3c4c(c5c6ccccc6n2c5c31)CNC4=O [Lestaurtinib] + CCCCCCCCCCCC1=C(O)C(=O)C=C(O)C1=O [Embelin] (first compound 0.004 µM, partner dose 1.2 µM)",74.9%,94.1%,55.4%,138%,92.6%,106%,81.1%,114%
"O=C(Nc1cc(C(F)(F)F)cc(C(F)(F)F)c1)c1cc(Cl)ccc1O + O=C(Oc1ccc([N+](=O)[O-])cc1)N1CCC(C(O)(c2ccc3c(c2)OCO3)c2ccc3c(c2)OCO3)CC1 [JZL184] (first compound 0.016 µM, partner dose 1 µM)",75.8%,129%,187%,95.1%,116%,29%,35.7%,165%
"Cn1cc(C2=C(c3cn(C4CCN(Cc5ccccn5)CC4)c4ccccc34)C(=O)NC2=O)c2ccccc21 [Enzastaurin] + Oc1nc(-c2ccc(C(F)(F)F)cc2)nc2c1CSCC2 [XAV939] (first compound 0.8 µM, partner dose 2 µM)",72.5%,104%,83.6%,124%,80.8%,68.1%,68.1%,48.1%
"C=CCNC1=C2C[C@@H](C)C[C@H](OC)[C@H](O)[C@@H](C)/C=C(\C)[C@H](OC(N)=O)[C@@H](OC)/C=C\C=C(/C)C(=O)NC(=CC1=O)C2=O [Tanespimycin] + Cc1cc(SCc2sc(-c3ccc(C(F)(F)F)c(F)c3)nc2C)ccc1OCC(=O)O [GW0742] (first compound 0.002 µM, partner dose 2 µM)",50.9%,25.6%,74.3%,119%,182%,72%,46.6%,108%
"CCCS(=O)(=O)Nc1ccc(F)c(C(=O)c2c[nH]c3ncc(Cl)cc23)c1F + O=C(Oc1ccc([N+](=O)[O-])cc1)N1CCC(C(O)(c2ccc3c(c2)OCO3)c2ccc3c(c2)OCO3)CC1 [JZL184] (first compound 0.08 µM, partner dose 1 µM)",105%,88%,79.1%,124%,82.4%,120%,67.9%,137%
"N.N.[Cl][Pt][Cl] [cisplatin] + O=C(O)C(=O)Nc1sc2c(c1C(=O)O)CCNC2 [TCS401] (first compound 1.6 µM, partner dose 1.66667 µM)",76%,64.5%,107%,274%,34%,49%,42.4%,106%
"CCN(CC)CCNC(=O)c1c(C)[nH]c(/C=C2\C(=O)Nc3ccc(F)cc32)c1C [sunitinib] + O=C(Oc1ccc([N+](=O)[O-])cc1)N1CCC(C(O)(c2ccc3c(c2)OCO3)c2ccc3c(c2)OCO3)CC1 [JZL184] (first compound 0.4 µM, partner dose 1 µM)",101%,163%,30.6%,276%,132%,181%,136%,276%

# Shown as tab-separated lines: part of the list above.
Structure (SMILES)	cleaved PARP positive nuclei fraction [1]	cleaved PARP positive nuclei fraction [2]	cleaved PARP positive nuclei fraction [3]	cleaved PARP positive nuclei fraction [4]	cleaved PARP positive nuclei fraction [5]	cleaved PARP positive nuclei fraction [6]	cleaved PARP positive nuclei fraction [7]	cleaved PARP positive nuclei fraction [8]
Cn1cc(C2=C(c3cn(C4CCN(Cc5ccccn5)CC4)c4ccccc34)C(=O)NC2=O)c2ccccc21 [Enzastaurin] + c1cc(-c2cnn3cc(-c4ccc(OCCN5CCCCC5)cc4)cnc23)ccn1 [Dorsomorphin] (first compound 0.8 µM, partner dose 0.4 µM)	191%	131%	51.6%	55.1%	115%	53.8%	145%	63.7%
Cn1cc(C2=C(c3cn(C4CCN(Cc5ccccn5)CC4)c4ccccc34)C(=O)NC2=O)c2ccccc21 [Enzastaurin] + COC(=O)c1sccc1S(=O)(=O)Nc1ccc(Nc2ccccc2)cc1OC [GSK0660] (first compound 0.8 µM, partner dose 1 µM)	60.9%	139%	65.7%	58.6%	81.2%	81%	78.6%	177%
